Results: the supplement of paper PMC12819154, “High-throughput peptide-centric local stability assay extends protein–ligand identification to membrane proteins, tissues and bacteria” (Nature Structural & Molecular Biology, 2025)
The list shows a part of the results. Most values lie at the level of the controls, where differences are scatter.

By UniProt entry, the sequences of proteins in these tests, tags left out. Where a name states a change or a piece, a line headed by the entry shows the natural chain unless it says otherwise.
UniProt Q9H6K1: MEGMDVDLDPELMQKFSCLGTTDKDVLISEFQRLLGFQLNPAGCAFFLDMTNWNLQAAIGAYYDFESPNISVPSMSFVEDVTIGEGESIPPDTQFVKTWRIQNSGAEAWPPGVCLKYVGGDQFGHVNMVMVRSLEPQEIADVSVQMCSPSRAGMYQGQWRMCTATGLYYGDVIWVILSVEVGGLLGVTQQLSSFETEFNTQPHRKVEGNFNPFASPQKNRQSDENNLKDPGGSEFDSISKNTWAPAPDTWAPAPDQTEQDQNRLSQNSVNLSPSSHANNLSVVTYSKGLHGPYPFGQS
UniProt Q9H6T3, whole entry: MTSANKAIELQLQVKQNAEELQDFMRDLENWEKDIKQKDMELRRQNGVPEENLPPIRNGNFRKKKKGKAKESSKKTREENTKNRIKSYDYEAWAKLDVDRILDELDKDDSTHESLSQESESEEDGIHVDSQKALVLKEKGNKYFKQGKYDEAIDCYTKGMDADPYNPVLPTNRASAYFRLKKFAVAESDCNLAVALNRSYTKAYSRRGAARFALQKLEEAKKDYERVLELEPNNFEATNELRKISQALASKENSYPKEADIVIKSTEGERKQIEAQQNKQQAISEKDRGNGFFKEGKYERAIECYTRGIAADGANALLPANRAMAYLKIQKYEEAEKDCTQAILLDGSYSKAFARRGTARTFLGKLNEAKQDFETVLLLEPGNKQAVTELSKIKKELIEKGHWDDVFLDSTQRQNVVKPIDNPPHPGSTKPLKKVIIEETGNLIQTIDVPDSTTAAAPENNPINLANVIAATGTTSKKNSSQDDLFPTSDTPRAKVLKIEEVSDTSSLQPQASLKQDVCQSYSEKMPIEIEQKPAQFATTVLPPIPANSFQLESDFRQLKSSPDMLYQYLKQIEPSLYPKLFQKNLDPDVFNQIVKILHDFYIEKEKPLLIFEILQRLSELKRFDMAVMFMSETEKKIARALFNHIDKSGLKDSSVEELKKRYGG
UniProt Q9H825: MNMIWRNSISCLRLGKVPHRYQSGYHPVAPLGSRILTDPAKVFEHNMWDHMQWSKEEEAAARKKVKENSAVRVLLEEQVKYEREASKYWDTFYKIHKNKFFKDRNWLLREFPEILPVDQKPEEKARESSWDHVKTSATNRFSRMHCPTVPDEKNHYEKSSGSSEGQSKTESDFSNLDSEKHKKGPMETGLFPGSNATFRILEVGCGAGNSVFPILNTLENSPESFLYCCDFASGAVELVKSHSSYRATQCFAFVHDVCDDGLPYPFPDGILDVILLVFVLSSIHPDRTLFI
UniProt Q9H7Z3: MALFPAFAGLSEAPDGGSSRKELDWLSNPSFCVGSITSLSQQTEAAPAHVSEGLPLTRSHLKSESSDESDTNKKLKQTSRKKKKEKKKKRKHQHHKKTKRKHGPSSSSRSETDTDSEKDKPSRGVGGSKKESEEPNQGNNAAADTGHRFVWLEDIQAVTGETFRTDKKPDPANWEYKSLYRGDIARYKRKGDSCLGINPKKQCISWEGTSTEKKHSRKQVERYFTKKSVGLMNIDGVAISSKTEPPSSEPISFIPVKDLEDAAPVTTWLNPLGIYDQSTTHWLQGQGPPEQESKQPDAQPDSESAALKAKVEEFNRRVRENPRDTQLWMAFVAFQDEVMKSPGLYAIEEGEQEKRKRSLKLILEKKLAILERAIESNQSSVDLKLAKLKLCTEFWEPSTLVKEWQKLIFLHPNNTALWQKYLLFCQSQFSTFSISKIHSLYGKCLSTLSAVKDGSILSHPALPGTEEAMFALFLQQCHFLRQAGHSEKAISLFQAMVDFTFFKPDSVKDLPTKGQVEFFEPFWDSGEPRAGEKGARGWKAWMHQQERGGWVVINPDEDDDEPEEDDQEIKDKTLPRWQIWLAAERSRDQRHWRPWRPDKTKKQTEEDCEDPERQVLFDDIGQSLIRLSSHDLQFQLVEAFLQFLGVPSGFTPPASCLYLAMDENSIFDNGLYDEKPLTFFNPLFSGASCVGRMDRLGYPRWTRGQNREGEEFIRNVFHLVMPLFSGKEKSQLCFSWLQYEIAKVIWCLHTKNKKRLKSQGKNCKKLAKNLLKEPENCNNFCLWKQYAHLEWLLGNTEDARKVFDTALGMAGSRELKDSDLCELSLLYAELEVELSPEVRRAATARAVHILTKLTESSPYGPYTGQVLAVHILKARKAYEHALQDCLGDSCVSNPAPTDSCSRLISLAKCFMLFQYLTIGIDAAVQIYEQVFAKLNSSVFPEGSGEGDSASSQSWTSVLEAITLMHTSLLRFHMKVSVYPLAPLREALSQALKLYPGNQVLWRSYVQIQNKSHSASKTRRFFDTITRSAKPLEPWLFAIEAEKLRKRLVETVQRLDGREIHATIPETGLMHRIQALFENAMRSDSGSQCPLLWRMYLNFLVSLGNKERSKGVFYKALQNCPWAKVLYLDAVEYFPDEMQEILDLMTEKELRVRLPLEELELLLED
UniProt Q9H3M7: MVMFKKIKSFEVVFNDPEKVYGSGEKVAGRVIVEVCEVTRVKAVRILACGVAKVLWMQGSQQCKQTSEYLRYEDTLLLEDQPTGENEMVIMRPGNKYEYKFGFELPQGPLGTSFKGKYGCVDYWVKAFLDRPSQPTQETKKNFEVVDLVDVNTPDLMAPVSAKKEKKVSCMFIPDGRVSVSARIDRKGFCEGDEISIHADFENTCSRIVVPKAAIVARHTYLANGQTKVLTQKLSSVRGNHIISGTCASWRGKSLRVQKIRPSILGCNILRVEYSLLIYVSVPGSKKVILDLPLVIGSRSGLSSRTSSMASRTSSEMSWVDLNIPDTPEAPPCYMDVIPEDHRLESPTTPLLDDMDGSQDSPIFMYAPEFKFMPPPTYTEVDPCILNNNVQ
UniProt Q9H9L3: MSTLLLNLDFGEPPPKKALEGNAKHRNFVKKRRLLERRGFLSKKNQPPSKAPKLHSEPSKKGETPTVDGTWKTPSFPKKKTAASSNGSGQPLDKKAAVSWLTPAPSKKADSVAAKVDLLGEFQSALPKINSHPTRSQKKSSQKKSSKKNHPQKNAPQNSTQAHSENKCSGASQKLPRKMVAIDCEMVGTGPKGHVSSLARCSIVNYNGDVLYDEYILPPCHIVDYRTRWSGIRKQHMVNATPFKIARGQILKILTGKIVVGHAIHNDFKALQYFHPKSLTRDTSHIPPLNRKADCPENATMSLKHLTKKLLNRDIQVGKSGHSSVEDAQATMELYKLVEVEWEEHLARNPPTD
UniProt Q9H4A6: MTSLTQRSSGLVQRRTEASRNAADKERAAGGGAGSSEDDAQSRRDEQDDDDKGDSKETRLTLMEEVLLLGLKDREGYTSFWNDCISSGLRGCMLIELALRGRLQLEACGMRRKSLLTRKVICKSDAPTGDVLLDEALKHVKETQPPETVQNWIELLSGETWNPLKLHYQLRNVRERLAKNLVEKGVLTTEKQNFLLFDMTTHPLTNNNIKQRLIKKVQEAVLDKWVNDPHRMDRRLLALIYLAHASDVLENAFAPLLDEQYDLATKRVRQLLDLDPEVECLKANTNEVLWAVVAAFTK
UniProt Q9H8N7: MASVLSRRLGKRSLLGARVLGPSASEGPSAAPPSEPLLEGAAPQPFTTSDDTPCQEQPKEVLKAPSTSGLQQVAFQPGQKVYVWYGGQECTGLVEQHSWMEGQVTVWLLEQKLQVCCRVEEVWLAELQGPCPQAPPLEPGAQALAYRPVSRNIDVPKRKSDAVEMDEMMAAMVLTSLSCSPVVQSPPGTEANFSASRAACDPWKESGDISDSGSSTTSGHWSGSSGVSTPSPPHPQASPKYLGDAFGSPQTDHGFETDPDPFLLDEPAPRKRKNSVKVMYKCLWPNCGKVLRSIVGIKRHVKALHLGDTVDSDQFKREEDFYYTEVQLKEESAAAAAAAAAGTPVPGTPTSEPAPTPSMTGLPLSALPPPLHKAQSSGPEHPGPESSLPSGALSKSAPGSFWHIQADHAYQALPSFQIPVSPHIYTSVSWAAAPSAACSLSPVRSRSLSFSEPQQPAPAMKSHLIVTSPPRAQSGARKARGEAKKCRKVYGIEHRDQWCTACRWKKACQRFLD
UniProt Q9H993: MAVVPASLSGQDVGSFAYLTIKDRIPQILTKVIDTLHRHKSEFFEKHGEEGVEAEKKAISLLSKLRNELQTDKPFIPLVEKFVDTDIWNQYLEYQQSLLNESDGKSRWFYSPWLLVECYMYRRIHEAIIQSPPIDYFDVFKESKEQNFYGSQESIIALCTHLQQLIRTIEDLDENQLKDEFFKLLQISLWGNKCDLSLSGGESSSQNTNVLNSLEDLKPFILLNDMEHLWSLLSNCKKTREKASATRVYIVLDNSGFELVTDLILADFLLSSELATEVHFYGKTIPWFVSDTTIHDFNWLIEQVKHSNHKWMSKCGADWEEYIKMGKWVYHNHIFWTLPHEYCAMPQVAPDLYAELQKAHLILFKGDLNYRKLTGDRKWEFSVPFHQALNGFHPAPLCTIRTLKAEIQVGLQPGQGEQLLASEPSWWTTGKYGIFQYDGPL
UniProt Q9H8T0: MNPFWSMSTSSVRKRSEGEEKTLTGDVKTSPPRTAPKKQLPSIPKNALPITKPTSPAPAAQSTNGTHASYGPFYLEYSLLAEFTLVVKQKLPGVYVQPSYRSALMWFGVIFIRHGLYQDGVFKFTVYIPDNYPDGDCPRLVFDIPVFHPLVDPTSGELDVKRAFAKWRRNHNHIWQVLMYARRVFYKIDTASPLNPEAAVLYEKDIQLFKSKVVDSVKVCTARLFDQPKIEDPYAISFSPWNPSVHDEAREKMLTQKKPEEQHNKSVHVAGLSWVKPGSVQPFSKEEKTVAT
UniProt Q9H4B6: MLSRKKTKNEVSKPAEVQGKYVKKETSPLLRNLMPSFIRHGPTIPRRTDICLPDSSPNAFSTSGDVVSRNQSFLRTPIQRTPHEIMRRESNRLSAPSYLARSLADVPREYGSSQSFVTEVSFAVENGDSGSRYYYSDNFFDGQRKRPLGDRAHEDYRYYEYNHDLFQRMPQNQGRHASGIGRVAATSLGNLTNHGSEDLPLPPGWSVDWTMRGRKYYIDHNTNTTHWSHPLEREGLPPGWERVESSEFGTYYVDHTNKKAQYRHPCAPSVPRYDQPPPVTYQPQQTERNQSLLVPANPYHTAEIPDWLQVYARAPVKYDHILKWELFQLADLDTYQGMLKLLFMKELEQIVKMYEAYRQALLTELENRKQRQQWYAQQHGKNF
UniProt Q9H4Z2: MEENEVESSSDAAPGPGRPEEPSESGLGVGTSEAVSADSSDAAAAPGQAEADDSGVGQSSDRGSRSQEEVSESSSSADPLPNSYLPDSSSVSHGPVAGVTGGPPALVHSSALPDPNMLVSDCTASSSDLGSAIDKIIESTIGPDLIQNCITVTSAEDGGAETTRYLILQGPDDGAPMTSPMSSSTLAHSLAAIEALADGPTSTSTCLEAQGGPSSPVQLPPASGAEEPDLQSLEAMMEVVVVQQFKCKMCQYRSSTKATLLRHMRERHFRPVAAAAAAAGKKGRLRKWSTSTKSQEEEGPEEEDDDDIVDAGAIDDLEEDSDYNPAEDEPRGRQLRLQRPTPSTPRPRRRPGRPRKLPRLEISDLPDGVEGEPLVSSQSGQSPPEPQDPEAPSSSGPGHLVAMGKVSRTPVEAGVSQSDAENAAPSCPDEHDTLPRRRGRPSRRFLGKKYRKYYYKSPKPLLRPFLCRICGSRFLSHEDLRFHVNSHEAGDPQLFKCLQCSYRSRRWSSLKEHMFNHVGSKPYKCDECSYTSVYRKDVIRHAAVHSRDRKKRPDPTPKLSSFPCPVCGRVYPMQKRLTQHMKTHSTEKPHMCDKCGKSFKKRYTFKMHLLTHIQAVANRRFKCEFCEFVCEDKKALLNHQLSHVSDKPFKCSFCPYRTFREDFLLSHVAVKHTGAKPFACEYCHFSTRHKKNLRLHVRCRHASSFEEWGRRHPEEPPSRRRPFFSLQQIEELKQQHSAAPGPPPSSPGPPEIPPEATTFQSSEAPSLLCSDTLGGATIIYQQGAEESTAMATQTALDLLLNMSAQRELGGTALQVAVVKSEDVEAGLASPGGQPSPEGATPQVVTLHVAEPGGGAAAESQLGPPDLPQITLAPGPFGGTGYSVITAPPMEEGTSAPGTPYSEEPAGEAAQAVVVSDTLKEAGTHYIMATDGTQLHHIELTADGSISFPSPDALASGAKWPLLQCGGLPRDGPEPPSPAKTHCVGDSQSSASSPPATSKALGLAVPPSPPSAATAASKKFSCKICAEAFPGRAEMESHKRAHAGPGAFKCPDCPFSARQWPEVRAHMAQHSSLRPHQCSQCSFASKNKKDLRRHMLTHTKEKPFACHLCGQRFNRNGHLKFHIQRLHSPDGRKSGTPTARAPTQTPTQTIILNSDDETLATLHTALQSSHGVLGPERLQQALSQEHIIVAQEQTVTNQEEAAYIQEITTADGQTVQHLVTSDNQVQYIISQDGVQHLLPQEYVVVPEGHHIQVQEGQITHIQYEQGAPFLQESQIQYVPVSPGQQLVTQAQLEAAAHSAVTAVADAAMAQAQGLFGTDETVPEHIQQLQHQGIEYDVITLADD

compound: Cc1nc(Nc2ncc(C(=O)Nc3c(C)cccc3Cl)s2)cc(N2CCN(CCO)CC2)n1 [dasatinib]; assay: log2 fold change of tryptic peptide abundance, ligand vs vehicle (limited proteolysis) (log2 ratio); higher = more trypsin-susceptible (destabilized); settings: ligand concentration: 5 uM; sample: K562 cleared lysate

Row | Target | log2 fold change
1 | ACTR8 (peptide sequence: KTAISLFEGK, peptide start residue: 498) (UniProt Q9H981) | 0.631
2 | DHX36 (peptide sequence: SSGGGYGGGPAGGHGGNR, peptide start residue: 17) (UniProt Q9H2U1) | -0.29
3 | NOL6 (peptide sequence: EILQDKDGLNQR, peptide start residue: 187) (UniProt Q9H6R4) | -0.292
4 | UniProt Q9H6K1 (peptide sequence: GLHGPYPFGQS, peptide start residue: 288) | -0.08
5 | CCDC86 (peptide sequence: GQHEPSKPPPAGETVTGGFGAKK, peptide start residue: 191) (UniProt Q9H6F5) | -0.557
6 | RC3H2 (peptide sequence: KQSLGEDHVILEEQK, peptide start residue: 1117) (UniProt Q9HBD1) | 0.603
7 | RPAP3 (peptide sequence: QNVVKPIDNPPHPGSTKPLK, peptide start residue: 414) (UniProt Q9H6T3) | -0.842
8 | METTL8 (peptide sequence: TESDFSNLDSEKHK, peptide start residue: 169) (UniProt Q9H825) | -0.558
9 | UniProt Q9H7Z3 (peptide sequence: NVFHLVMPLFSGKEK, peptide start residue: 715) | -0.728
10 | UniProt Q9HAF1 (peptide sequence: ELAELVKR, peptide start residue: 18) | -0.42
11 | TXNIP (peptide sequence: HTYLANGQTK, peptide start residue: 219) (UniProt Q9H3M7) | -0.0805
12 | FN3KRP (peptide sequence: GSSLNIMR, peptide start residue: 298) (UniProt Q9HA64) | 0.145
13 | ISG20L2 (peptide sequence: NAPQNSTQAHSENK, peptide start residue: 154) (UniProt Q9H9L3) | 0.288
14 | GOLPH3 (peptide sequence: LQLEACGMR, peptide start residue: 103) (UniProt Q9H4A6) | -0.219
15 | ZNF696 (peptide sequence: AAFLAQAPSGSR, peptide start residue: 25) (UniProt Q9H7X3) | -0.294
16 | C19orf44 (peptide sequence: TDLPQTAESR, peptide start residue: 507) (UniProt Q9H6X5) | -0.0893
17 | UniProt Q9H8N7 (peptide sequence: DQWCTACR, peptide start residue: 496) | -0.24
18 | UniProt Q9H993 (peptide sequence: LRNELQTDKPFIPLVEK, peptide start residue: 65) | -0.0644
19 | AKTIP (peptide sequence: SVHVAGLSWVKPGSVQPFSKEEK, peptide start residue: 266) (UniProt Q9H8T0) | 0.171
20 | SAV1 (peptide sequence: LSAPSYLAR, peptide start residue: 93) (UniProt Q9H4B6) | -0.148
21 | CENPJ (peptide sequence: WSSTHSR, peptide start residue: 1017) (UniProt Q9HC77) | -0.763
22 | GORASP2 (peptide sequence: IPTRPFEEGK, peptide start residue: 202) (UniProt Q9H8Y8) | -0.456
23 | ZNF335 (peptide sequence: ELGGTALQVAVVK, peptide start residue: 807) (UniProt Q9H4Z2) | 0.137
24 | ELP3 (peptide sequence: HLSDMLTYGCTR, peptide start residue: 231) (UniProt Q9H9T3) | -0.487
25 | SLC12A5 (peptide sequence: HLPGEDVK, peptide start residue: 33) (UniProt Q9H2X9) | 0.0347
26 | NMNAT1 (peptide sequence: NAGVILAPLQR, peptide start residue: 262) (UniProt Q9HAN9) | -0.187
27 | ZFYVE1 (peptide sequence: VCDNCYEAR, peptide start residue: 650) (UniProt Q9HBF4) | 0.337
28 | ANKRA2 (peptide sequence: AECNIHTSPSPGIQVR, peptide start residue: 97) (UniProt Q9H9E1) | 0.0391

Reprinted at random: two entries already listed
Row | Target | log2 fold change
17 | UniProt Q9H8N7 (peptide sequence: DQWCTACR, peptide start residue: 496) | -0.24
16 | C19orf44 (peptide sequence: TDLPQTAESR, peptide start residue: 507) (UniProt Q9H6X5) | -0.0893
